Measurements taken from publication PMC5703968.
Results are given in words; binding and its absence hold for the method and conditions named. In cells and extracts the contact can be indirect. A yes stands for co-enrichment or nearness to the bait. Other partners may have been found.

By UniProt entry, the sequences of proteins in these tests, tags left out.
UniProt Q4QRB4: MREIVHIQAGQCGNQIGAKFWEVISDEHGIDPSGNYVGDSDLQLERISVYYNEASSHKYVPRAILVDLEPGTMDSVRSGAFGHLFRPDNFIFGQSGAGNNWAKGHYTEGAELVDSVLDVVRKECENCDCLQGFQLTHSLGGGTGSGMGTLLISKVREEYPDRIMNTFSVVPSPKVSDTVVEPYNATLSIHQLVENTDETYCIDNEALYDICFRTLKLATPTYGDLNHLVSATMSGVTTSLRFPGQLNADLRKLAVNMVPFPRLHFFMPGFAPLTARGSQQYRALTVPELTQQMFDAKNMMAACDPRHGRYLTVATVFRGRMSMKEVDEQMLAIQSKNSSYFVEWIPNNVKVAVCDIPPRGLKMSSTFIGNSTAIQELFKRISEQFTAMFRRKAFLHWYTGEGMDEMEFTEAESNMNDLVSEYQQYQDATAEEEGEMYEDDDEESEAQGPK
UniProt Q63544: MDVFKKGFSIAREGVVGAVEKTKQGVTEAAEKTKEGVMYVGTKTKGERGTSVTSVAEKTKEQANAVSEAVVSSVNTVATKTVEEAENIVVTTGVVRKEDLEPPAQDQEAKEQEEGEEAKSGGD

Target: βIII-tubulin (endogenous, rat femoral nerve) (rat (endogenous in femoral nerve)) (UniProt Q4QRB4)
Experiment: affinity purification with mass spectrometry; biotinylated anti-βIII-tubulin antibody on streptavidin agarose; lysate of ligated rat femoral nerve (0.5 mg protein), BRB80, 2 h at 4 °C; eluate analysed by LC-MS/MS

binding: binds
Substance: γ-synuclein (endogenous, rat femoral nerve) (from UniProt Q63544 1-123)
